{"source": "PubChem BioAssay AID1347075", "about": "(National Center for Advancing Translational Sciences (NCATS), 2019)", "note": "Where “and” joins values, the source holds several entries; their conditions need not be identical. Identical values can stand only once. Out of some 400,000 compounds screened, about 5,500 (1.4%) were called active. The shares of active, inactive and inconclusive entries below differ from those in the screen. Calls come from the whole dose curve; as a rule, active = well fitted cell-killing curve with a large enough effect; inconclusive = small, poorly fitted or top-dose-only effect, or effect the other way; inactive = flat fitted curve, though single readings scatter. A potency beside an inconclusive call is a rough fit, not a confirmed value. % is set by controls: 0 for no effect and ±100 for the full control effect; potency is the fitted concentration of half-maximal effect."}
{"test": "qHTS assay for MDR1-selective chemotherapeutics: Primary screen using the parental adenocarcinoma cell KB-3-1; note: nearly all actives have a fitted effect of over 60% in size", "conditions": "KB-3-1 viability, CellTiter-Glo ATP luminescence, 72 h; activity change, negative = cytotoxic: at 46.1 µM (top of the series)", "outline": "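Multi-concentration cytotoxicity screen in KB-3-1 cells grown in DMEM lacking phenol red with 10% FBS. After 72 h at 37 °C with compound, ATP-dependent luminescence was recorded.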"}
{"smiles": "CC(C)Oc1ccccc1NC(=O)CSc1nccn1C", "Potency": "inactive"}
{"smiles": "CC(C)c1ccc(C(=O)NC(=S)NCc2cccnc2)cc1", "Potency": "inconclusive: 25.9 µM [cytotoxic, single point]"}
{"smiles": "O=C(C1=C[C@H](c2ccc3c(c2)OCO3)C[C@H](OCc2ccc(CO)cc2)O1)N1CCN(Cc2ccc3c(c2)OCO3)CC1", "Potency": "inconclusive: 29.1 µM [cytotoxic, single point]"}
{"smiles": "COc1ccc(N(Cc2ccccc2)C(=O)CSc2nnc(Cn3nnc4ccccc43)o2)cc1", "Potency": "inconclusive: 29.1 µM [cytotoxic, single point]"}
{"smiles": "Cc1ccc(-n2cc(CNCCc3ncc(C)[nH]3)c(-c3ccc(F)cc3)n2)cc1", "Potency": "inconclusive: 29.1 µM [cytotoxic, single point]"}
{"smiles": "Cc1cc2c(SCC(=O)N3CCN(c4ccccc4)CC3)ncnc2s1", "Potency": "inconclusive: 18.4 µM [rising, single point]"}
{"smiles": "CCc1cccc2c(C#N)cn(CCOc3ccccc3OC)c12", "activity change, negative = cytotoxic": "inactive: -9.53%"}
{"smiles": "O=C(COc1cccc2c1CCN(Cc1ccc(Br)cc1)C2=O)NCc1ccco1", "Potency": "inconclusive: 16.4 µM [cytotoxic, partial curve]"}
{"smiles": "CCOc1cc(N2CCOCC2)c(OCC)cc1NC(=O)c1ccc(NC(C)=O)cc1", "Potency": "inconclusive: 5.17 µM [rising, partial curve]"}
{"smiles": "O=c1c2cn[nH]c2nc(SCc2c(F)cccc2F)n1-c1ccc(Cl)cc1", "Potency": "inconclusive: 29.1 µM [cytotoxic, single point]"}
{"smiles": "CSCCC(NS(=O)(=O)c1ccccc1F)C(=O)N1CCCCCCC1", "note": "(stereo unspecified)", "activity change, negative = cytotoxic": "inactive: 9.63%"}
{"smiles": "CSc1cc(-c2ccc(Cl)cc2)n(Cc2ccccc2)c(=O)c1C#N", "Potency": "active: 16.4 µM"}
{"smiles": "O=C(c1ccco1)N1CCN(C(=O)C(Sc2ccccc2)c2ccccc2)CC1", "note": "(stereo unspecified)", "Potency": "inconclusive: 20.6 µM [cytotoxic, single point]"}
{"smiles": "COc1ccc(C(O)c2nc3ccccc3n2C(C)C)cc1", "note": "(stereo unspecified)", "Potency": "inconclusive: 29.1 µM [cytotoxic, single point]"}
{"smiles": "CC(=O)SC(C[N+](=O)[O-])c1cn(C(C)=O)c2ccccc12", "note": "(stereo unspecified)", "Potency": "inconclusive: 29.1 µM [cytotoxic, single point]"}
{"smiles": "CCOc1ccccc1Nc1cc(C)nc2ccc(C)cc12", "Potency": "inconclusive: 25.9 µM [cytotoxic, partial curve, poor fit]"}
{"smiles": "O=C(Nc1nc2ccc(SC(F)F)cc2s1)c1ccc(NS(=O)(=O)c2ccc(F)c(F)c2)cc1", "activity change, negative = cytotoxic": "inactive: -13.1%"}
{"smiles": "Cc1ccc(C(=O)NCC(=O)NC23CC4CC(CC(C4)C2)C3)cc1", "Potency": "inconclusive: 0.0082 µM [rising, full curve]"}
{"smiles": "CN1\\C(=C/C=C/C=C/C=[N+](C)C)C(C)(C)c2ccccc21", "Potency": "inconclusive: 29.1 µM [cytotoxic, single point]"}
{"smiles": "O=C(Cc1ccccc1)Nc1cccc(NC(=O)c2cccs2)c1", "Potency": "inconclusive: 20.6 µM [cytotoxic, single point]"}
{"smiles": "COc1ccccc1NC(=O)COc1ccc(-c2nn(C)c(=O)c3ccccc23)cc1", "Potency": "inconclusive: 29.1 µM [cytotoxic, single point]"}
{"smiles": "COC(=O)c1cc(C)sc1NC(=O)C1CC(=O)NN1Cc1ccccc1", "note": "(stereo unspecified)", "activity change, negative = cytotoxic": "inactive: 1.46%"}
{"smiles": "CCCCOc1ccc(S(=O)(=O)n2c(C)nc3ccccc32)cc1", "Potency": "inconclusive: 16.4 µM [cytotoxic, partial curve, poor fit]"}
{"smiles": "CCC(C)(C)NC(=O)C(c1cccc(OC)c1OC)N(CCC(C)C)C(=O)CCC(=O)Nc1cc(C)on1", "note": "(stereo unspecified)", "Potency": "inconclusive: 29.1 µM [cytotoxic, single point]"}
{"smiles": "COc1cc2ccccc2cc1C(=O)N1CCc2ccccc21", "Potency": "inconclusive: 23.1 µM [cytotoxic, single point]"}
{"smiles": "O=C(Nc1ccc2c(c1)CCC2)c1ccc(F)c(S(=O)(=O)N2CCOCC2)c1", "Potency": "inconclusive: 18.4 µM [cytotoxic, single point]"}
{"smiles": "Cc1cccc(CN2CCN(C3CN(Cc4cn(Cc5cc(C)cc(C)c5)nn4)S(=O)(=O)C3)CC2)c1", "note": "(stereo unspecified)", "Potency": "inconclusive: 25.9 µM [cytotoxic, single point]"}
{"smiles": "N#CCOC(=O)/C=C/c1ccc2c(c1)OCO2", "activity change, negative = cytotoxic": "inactive: 5.82%"}
{"smiles": "COc1cccc(-c2cnc3c(NC=O)cc(-c4ccc(N(C)C)cc4)cn23)c1", "Potency": "inconclusive: 29.1 µM [cytotoxic, single point]"}
{"smiles": "Cc1sc(-c2cc3c([nH]c2=O)CC(c2ccccc2)CC3=O)nc1-c1ccc(Cl)cc1", "note": "(stereo unspecified)", "Potency": "active: 1.03 µM"}
{"smiles": "OCC1(Cc2cccc(C(F)(F)F)c2)CCN(Cc2cc(F)cc(F)c2)CC1", "Potency": "inconclusive: 18.4 µM [cytotoxic, single point]"}
{"smiles": "Cc1oc(=O)cc(OCc2ccccc2)c1C", "activity change, negative = cytotoxic": "inactive: -1.46%"}
{"smiles": "CCOC(=O)C1=C(CSc2nc(-c3ccccc3)ccc2C#N)OC(N)=C(C#N)C1c1ccccc1", "note": "(stereo unspecified)", "activity change, negative = cytotoxic": "inactive: -11%"}
{"smiles": "Cc1nc(-c2cc(C#N)c(=O)[nH]c2C)cs1", "Potency": "inconclusive: 16.4 µM [cytotoxic, single point]"}
{"smiles": "COc1ccc(/C=N/OCC(=O)N=Nc2c(O)[nH]c3ccc(Br)cc23)cc1OC", "activity change, negative = cytotoxic": "inactive: 25%"}
{"smiles": "Cc1ccc(-c2cc(-c3ccccc3)c(C#N)c(SCC(O)CS(=O)(=O)Cc3ccccc3)n2)cc1", "note": "(stereo unspecified)", "Potency": "inconclusive: 14.6 µM [cytotoxic, single point]"}
{"smiles": "CC/C(=N\\NC(=O)C1CCCC1)c1ccc(Br)cc1", "activity change, negative = cytotoxic": "inactive: -4.34%"}
{"smiles": "Cc1nc2cc(NC(=O)c3ccc(S(=O)(=O)N(C)c4ccccc4)cc3)ccc2o1", "Potency": "inconclusive: 1.3 µM [cytotoxic, full curve]"}
{"smiles": "COc1ccc(CC(=O)N/N=C/C=C/c2cccc([N+](=O)[O-])c2)cc1OC", "Potency": "inconclusive: 0.82 µM [rising, full curve, poor fit]"}
{"smiles": "COc1ccc2[nH]c3c(c2c1)CCN1C(=O)C(CC(=O)NCCCn2ccnc2)C[C@H](C(=O)N2CCCCC2)[C@@]31CCc1ccccc1", "note": "(stereo partly specified)", "activity change, negative = cytotoxic": "inactive: -4.41%"}
{"smiles": "CC1=NN(c2ccc(C(F)(F)F)cn2)C(=O)C1", "Potency": "inconclusive: 29.1 µM [cytotoxic, single point]"}
{"smiles": "Cc1ccc(C)c(N2CCN(C(=O)CCCOc3cc(=O)n(C)c4ccccc34)CC2)c1", "Potency": "inconclusive: 29.1 µM [cytotoxic, single point]"}
{"smiles": "Cc1ccccc1-c1nn(-c2ccc(F)cc2F)cc1CNCC(C)O", "note": "(stereo unspecified)", "activity change, negative = cytotoxic": "inactive: 0.424%"}
{"smiles": "Nc1cc(=O)[nH]c(SCC(=O)N2CCCC2)n1", "Potency": "inconclusive: 18.4 µM [rising, single point]"}
{"smiles": "Cc1c(-c2ccccc2)sc2nc[nH]c(=S)c12", "Potency": "inconclusive: 18.4 µM [cytotoxic, single point]"}
{"smiles": "COc1ccc2cc(/C=N/NC(=O)c3ccc(CN(c4cccc(Cl)c4Cl)S(C)(=O)=O)cc3)c(Cl)nc2c1", "Potency": "active: 2.59 µM"}
{"smiles": "CC(C)(C)c1ccc(N/N=C(\\C#N)S(=O)(=O)C(C)(C)C)cc1", "Potency": "inconclusive: 29.1 µM [cytotoxic, single point]"}
{"smiles": "Cc1cccc(S(=O)(=O)c2c(N)n(Cc3ccco3)c3nc4ccccc4nc23)c1", "Potency": "inconclusive: 29.1 µM [cytotoxic, single point]"}
{"smiles": "Cc1ccc2oc(=O)c3cnn(CC(=O)Nc4ccccc4N4CCN(C)CC4)c3c2c1", "Potency": "inconclusive: 23.1 µM [cytotoxic, single point]"}
{"smiles": "O=C(/C=C/c1ccc(Cl)cc1Cl)c1cccnc1", "Potency": "inconclusive: 29.1 µM [cytotoxic, single point]"}
{"smiles": "COc1ccc(-n2c(-c3ccc(Br)cc3)c[n+]3c2CCc2ccccc2-3)cc1", "Potency": "active: 2.59 µM"}
{"smiles": "CCc1nc2ccc(C(=O)Nc3cccc(NS(C)(=O)=O)c3)cn2c1N(CC)CCOC", "activity change, negative = cytotoxic": "inconclusive: 43.7%"}
{"smiles": "CCCCCCCCCCCCCCCC[n+]1ccccc1", "Potency": "active: 5.8 µM and inconclusive: 3.66 µM [cytotoxic, partial curve, poor fit] and inconclusive: 4.11 µM [cytotoxic, full curve, poor fit]"}
{"smiles": "CCN(CC(=O)NC(C)(C)C)C(=O)CCl", "Potency": "inconclusive: 29.1 µM [cytotoxic, single point]"}
{"smiles": "O=C(Nc1ncc2c(n1)-c1ccccc1CC2)c1cccs1", "activity change, negative = cytotoxic": "inconclusive: -23.5%"}
{"smiles": "O=c1nc2c(O)cccn2c2c1c(=O)[nH]c1ccccc12", "activity change, negative = cytotoxic": "inconclusive: 31.3%"}
{"smiles": "Nc1nc2ccc(-c3nc4ccccc4o3)cc2s1", "Potency": "active: 5.8 µM"}
{"smiles": "NC(=O)CC(NC(=O)Cc1cccc2ccccc12)c1ccc(NCCOc2ccccc2)c([N+](=O)[O-])c1", "note": "(stereo unspecified)", "activity change, negative = cytotoxic": "inactive: 0%"}
{"smiles": "N#C/C(=C\\Nc1ccc2c(c1)OCCO2)c1nc2ccccc2[nH]1", "Potency": "inconclusive: 8.2 µM [rising, partial curve, poor fit]"}
{"smiles": "CN(C)c1ccc(C(=O)Nc2nnc(-c3ccc(Cl)cc3)o2)cc1", "Potency": "inconclusive: 29.1 µM [cytotoxic, single point]"}
{"smiles": "O=C(NC1CCCCCC1)c1cc(S(=O)(=O)N2CCOCC2)ccc1N1CCCCC1", "Potency": "inconclusive: 9.2 µM [cytotoxic, partial curve, poor fit]"}
{"smiles": "COc1ccc(C2c3cc(OC)c(OC)cc3CC(=O)N2c2ccc(C)c(F)c2)cc1", "note": "(stereo unspecified)", "Potency": "inconclusive: 23.1 µM [cytotoxic, single point]"}
{"smiles": "CC1(C(=O)NCc2ccc(F)c(F)c2)Cc2c(-c3ccc4c(c3)OCO4)ccnc2O1", "note": "(stereo unspecified)", "Potency": "inconclusive: 20.6 µM [cytotoxic, single point]"}
{"smiles": "C[C@H](NC(=O)c1nc[nH]c1C(=O)NCC(=O)OC(C)(C)C)C(=O)OC(C)(C)C", "activity change, negative = cytotoxic": "inactive: -2.14%"}
{"smiles": "COc1ccc(OC)c(Cc2nnc(CCC(=O)NCc3nc4ccccc4s3)o2)c1", "activity change, negative = cytotoxic": "inactive: -0.549%"}
{"smiles": "CCOC(=O)C(=Cc1ccc(-c2ccsc2C(=O)OC)o1)C(=O)OCC", "Potency": "inconclusive: 29.1 µM [cytotoxic, single point]"}
